This is an account of results in patent US10786450B2, “Process for preparing a dry powder formulation comprising an anticholinergic, a corticosteroid and a beta-adrenergic” (CHIESI FARMACEUTICI S.p.A., priority 2017, dated 2020).

A short description of series [1]: Particle size distribution (PSD) by Malvern analysis of micronized powders, initial and after humidity exposure. To be noted: 30° C./65% RH 3 days and 25° C./90% RH 4 hours, open tray.
The nature of series [2]: Uniformity of distribution of the active ingredients in the powder blend by HPLC. To be noted: Example 3 powder formulation; 10 samples from different parts of the blend; mean value±RSD. The series is classed as physicochemical.

Consider `C[N+]1(C)CCC(OC(=O)C(O)(c2ccccc2)C2CCCC2)C1` (racemic) [GB, glycopyrronium bromide], for which the “Change of particle size distribution upon exposure to humidity (agglomeration)” value in series [1] is reported as “significant increase of the particle size”. Besides, the Uniformity of distribution in series [2] is 101.4 (±1.6).
